Experiment in all cases: co-IP
The target of assay [1] is T1, FLAG-SCAP stably expressed in HeLa cells (hamster) (UniProt P97260).
T1 sequence: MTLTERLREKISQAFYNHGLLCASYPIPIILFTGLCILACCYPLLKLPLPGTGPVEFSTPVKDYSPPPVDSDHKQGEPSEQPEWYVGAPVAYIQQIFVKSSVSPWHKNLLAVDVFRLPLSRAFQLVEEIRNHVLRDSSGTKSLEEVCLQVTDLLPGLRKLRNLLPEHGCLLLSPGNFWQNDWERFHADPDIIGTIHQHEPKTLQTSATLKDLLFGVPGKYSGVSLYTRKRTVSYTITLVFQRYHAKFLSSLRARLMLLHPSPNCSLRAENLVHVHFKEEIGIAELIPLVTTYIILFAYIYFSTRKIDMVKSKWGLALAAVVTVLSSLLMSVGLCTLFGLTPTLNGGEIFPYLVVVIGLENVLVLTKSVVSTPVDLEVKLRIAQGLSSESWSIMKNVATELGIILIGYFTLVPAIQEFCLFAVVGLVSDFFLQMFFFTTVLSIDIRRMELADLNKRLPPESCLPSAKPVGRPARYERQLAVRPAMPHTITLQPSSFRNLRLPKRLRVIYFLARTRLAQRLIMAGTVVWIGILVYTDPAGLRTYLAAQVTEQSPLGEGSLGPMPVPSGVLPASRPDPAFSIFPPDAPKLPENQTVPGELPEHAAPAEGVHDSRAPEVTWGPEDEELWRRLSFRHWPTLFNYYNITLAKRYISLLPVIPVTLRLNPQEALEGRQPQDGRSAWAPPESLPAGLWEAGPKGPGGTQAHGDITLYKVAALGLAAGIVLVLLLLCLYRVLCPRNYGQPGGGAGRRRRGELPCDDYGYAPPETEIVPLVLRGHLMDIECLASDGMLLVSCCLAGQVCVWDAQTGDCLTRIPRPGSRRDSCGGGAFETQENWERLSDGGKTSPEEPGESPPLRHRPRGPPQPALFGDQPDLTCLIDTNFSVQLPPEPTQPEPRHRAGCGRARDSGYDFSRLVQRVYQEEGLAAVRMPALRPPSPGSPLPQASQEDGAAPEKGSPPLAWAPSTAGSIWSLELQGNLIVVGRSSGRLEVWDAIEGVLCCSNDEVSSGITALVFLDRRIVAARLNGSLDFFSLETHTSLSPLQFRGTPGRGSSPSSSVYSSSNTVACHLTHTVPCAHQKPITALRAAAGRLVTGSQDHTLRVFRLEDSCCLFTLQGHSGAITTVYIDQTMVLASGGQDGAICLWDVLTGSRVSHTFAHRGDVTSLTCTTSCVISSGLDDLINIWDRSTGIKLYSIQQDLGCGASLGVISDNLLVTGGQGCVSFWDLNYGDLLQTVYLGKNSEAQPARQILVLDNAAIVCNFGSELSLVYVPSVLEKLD

Chains of the proteins cited; added tags and fusions are not shown. Lines headed by an entry give the natural chain unless they say otherwise; changes in a name come on top. A line that says so, or that is headed by a name, gives the form on record, which may keep a tag or linker.
reticulon-4B (RTN-4B), endogenous in HEK 293T (Q9NQC3-2, form named): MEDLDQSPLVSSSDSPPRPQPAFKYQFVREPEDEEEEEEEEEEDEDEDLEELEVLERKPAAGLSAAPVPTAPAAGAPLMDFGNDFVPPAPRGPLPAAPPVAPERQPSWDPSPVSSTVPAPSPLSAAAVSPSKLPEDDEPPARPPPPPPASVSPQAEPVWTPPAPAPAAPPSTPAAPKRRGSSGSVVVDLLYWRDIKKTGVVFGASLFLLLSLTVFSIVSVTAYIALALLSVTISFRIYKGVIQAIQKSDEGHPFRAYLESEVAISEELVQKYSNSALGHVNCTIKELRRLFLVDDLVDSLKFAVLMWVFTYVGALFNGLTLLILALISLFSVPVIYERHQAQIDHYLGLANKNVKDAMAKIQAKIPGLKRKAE

In another assay the target is T2, FLAG-SREBP1a (UniProt P36956).
T2 sequence: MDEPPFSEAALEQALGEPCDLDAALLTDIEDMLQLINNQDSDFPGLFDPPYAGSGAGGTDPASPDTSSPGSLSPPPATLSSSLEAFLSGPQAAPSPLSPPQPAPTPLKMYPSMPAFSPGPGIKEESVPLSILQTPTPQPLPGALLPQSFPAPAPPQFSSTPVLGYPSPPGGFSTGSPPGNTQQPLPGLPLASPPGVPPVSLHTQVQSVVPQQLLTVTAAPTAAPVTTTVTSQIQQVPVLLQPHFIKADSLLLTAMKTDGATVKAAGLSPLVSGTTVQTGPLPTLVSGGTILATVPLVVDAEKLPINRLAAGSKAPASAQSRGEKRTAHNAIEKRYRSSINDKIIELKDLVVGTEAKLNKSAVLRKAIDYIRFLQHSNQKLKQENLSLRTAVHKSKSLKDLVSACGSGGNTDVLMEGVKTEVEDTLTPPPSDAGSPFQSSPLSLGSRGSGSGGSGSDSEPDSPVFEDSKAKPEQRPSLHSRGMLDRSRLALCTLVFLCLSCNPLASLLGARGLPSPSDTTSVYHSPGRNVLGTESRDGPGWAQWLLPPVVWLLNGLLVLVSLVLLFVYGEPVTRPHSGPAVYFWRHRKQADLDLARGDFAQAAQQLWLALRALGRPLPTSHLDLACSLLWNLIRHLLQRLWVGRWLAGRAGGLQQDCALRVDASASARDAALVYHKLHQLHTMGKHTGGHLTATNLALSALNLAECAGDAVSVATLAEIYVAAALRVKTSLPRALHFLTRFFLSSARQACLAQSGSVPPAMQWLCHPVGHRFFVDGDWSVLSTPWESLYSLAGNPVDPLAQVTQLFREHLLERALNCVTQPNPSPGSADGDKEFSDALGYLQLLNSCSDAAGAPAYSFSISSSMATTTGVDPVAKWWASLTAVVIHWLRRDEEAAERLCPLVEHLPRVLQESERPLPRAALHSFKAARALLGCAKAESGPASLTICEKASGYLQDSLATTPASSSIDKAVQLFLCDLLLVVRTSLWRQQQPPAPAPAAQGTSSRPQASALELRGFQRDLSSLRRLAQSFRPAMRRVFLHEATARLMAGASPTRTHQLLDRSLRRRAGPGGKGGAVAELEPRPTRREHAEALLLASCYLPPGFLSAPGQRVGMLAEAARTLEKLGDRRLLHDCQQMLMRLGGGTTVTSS

The target in the next assay is T3, FLAG-SREBP2 (UniProt Q12772).
T3 sequence: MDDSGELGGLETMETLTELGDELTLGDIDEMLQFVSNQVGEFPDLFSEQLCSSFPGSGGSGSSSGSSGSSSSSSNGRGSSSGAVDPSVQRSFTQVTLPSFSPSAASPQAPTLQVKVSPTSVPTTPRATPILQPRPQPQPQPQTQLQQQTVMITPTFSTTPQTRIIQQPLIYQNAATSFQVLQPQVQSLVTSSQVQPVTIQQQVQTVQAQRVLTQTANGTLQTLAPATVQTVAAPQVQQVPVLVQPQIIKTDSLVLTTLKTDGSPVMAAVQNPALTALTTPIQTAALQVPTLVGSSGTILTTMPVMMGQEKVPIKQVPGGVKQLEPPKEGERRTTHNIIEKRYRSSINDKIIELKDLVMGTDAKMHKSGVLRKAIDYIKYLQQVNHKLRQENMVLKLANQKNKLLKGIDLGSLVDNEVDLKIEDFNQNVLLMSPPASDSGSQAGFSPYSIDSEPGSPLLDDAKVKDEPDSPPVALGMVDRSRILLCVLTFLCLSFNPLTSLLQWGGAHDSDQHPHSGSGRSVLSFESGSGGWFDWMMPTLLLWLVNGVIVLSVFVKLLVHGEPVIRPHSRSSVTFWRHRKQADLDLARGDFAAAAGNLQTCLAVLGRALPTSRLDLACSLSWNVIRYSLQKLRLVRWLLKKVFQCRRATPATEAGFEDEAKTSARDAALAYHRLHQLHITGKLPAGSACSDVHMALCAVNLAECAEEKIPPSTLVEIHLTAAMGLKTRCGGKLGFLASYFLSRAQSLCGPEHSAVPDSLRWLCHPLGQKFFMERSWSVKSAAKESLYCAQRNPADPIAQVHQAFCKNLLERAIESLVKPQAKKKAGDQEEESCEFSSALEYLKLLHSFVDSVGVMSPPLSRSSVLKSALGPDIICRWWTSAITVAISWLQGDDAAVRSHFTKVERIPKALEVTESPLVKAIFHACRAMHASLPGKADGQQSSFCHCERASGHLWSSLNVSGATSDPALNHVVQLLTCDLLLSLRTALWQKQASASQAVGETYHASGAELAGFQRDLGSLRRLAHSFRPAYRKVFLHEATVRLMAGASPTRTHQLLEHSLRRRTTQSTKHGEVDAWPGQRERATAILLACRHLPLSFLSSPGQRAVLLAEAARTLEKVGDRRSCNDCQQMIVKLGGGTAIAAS

The target in assay [2] is T4, FLAG-tagged hamster SCAP (hamster) (UniProt P97260).
T4 sequence: T1 sequence

Results are given in words; binding and its absence hold for the method and conditions named. In cells and extracts the contact can be indirect. Sequences can lack the tags named with a protein.

Consider “RTN-4B, endogenous in HeLa (from UniProt Q9NQC3-2 1-373)”, for which the binding entry in assay [1] is recorded as “no binding”.
“reticulon-4B (RTN-4B), endogenous in HEK 293T (from UniProt Q9NQC3-2 1-373)”: the binding entry (with FLAG-SREBP1a; in the assay with FLAG-SREBP2; in assay [2]) was “no binding” throughout.

These data come from article doi:10.1101/679936.
